Consider one molecule from US20030186254A1.

These are yes or no findings as the source states them, for the method shown. Some binding calls cover weakened binding; strength is not graded here.

The target of this test is Tip60, clone of a human brain library in vector pACT2 (yeast two-hybrid prey) (human). Nature of the test: yeast two-hybrid screen of a human brain library.

B1: amino-terminal half of PAK4 (amino acids 1 to 313, lacking the kinase domain) cloned into the vector pAS2-1 (yeast two-hybrid bait) (protein, not shown: large carriers)
chain: MFGKRKKRVEISAPSNFEHRVHTGFDQHEQKFTGLPRQWQSLIEESARRPKPLVDPACITSIQPGAPKTIVRGSKGAKDGALTLLLDEFENMSVTRSNSLRRDSPPPPARARQENGMPEEPATTARGGPGKAGSRGRFAGHSEAGGGSGDRRRAGPEKRPKSSREGSGGPQESSRDKRPLSGPDVGTPQPAGLASGAKLAAGRPFNTYPRADTDHPSRGAQGEPHDVAPNGPSAGGLAIPQSSSSSSRPPTRARGAPSPGVLGPHASEPQLAPPACTPAAPAVPGPPGPRSPQREPQRVSHEQFRAALQLVVD
B1: the binding result is on record as “binds”.
